Results are given in words; binding and its absence hold for the method and conditions named. In cells and extracts the contact can be indirect. Here binding means that the protein was enriched with, or labelled near, the bait; the list need not be complete.
Experiments:
Assay in all cases: proximity labelling; BioID: BirA*-fused bait induced with 200 ng/ml dox in stable 293T cells, 50 μM biotin for 24 h, streptavidin bead purification of biotinylated proteins, LC-MS/MS; hits filtered by Limma (>4-fold, adjusted P < 0.01) and SAINT (score >0.74) against BirA* and NLS-BirA* controls
[1] = target: METTL3, N-terminal BirA* fusion (human) (UniProt Q86U44)
[2] = target: METTL3, C-terminal BirA* fusion (human) (UniProt Q86U44)
[3] = target: MAC-PCIF1 (HA-Strep II-BirA*-PCIF1) (human) (UniProt Q9H4Z3)

Protein sequences, listed by entry. Tags and fused reporters are not part of them.
UniProt Q86U44: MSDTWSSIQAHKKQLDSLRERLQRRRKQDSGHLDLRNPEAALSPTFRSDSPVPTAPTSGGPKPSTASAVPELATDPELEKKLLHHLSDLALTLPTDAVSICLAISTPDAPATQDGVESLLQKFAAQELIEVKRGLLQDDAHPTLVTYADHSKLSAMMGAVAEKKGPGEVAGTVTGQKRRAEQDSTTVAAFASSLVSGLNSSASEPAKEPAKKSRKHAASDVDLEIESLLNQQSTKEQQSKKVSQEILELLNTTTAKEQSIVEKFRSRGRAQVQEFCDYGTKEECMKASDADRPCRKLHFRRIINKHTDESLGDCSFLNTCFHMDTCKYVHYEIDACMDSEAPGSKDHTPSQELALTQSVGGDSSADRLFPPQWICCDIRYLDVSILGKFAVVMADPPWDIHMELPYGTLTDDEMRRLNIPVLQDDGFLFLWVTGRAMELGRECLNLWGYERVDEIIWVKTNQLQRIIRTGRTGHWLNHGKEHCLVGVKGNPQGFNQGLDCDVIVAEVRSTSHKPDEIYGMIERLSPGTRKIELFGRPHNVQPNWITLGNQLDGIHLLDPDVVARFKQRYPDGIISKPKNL
UniProt Q9H4Z3: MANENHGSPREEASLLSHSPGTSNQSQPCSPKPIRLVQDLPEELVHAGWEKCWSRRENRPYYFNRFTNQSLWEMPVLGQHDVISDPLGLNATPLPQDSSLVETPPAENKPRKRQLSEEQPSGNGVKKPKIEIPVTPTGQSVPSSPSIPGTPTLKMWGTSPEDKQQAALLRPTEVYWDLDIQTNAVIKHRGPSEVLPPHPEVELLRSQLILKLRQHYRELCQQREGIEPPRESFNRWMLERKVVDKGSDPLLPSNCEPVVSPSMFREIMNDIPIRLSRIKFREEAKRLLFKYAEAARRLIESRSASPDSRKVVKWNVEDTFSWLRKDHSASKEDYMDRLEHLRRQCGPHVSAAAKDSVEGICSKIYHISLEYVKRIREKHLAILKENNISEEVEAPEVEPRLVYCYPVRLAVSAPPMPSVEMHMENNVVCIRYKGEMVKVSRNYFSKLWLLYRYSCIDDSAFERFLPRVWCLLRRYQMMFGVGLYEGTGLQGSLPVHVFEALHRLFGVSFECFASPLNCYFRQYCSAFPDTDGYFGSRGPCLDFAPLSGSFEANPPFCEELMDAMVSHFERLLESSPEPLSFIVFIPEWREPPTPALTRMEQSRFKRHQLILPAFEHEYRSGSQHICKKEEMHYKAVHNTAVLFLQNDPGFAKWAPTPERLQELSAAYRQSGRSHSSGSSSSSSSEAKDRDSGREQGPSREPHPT

B1: RBM15 (protein, UniProt Q96T37 1-977)
chain: MRTAGRDPVPRRSPRWRRAVPLCETSAGRRVTQLRGDDLRRPATMKGKERSPVKAKRSRGGEDSTSRGERSKKLGGSGGSNGSSSGKTDSGGGSRRSLHLDKSSSRGGSREYDTGGGSSSSRLHSYSSPSTKNSSGGGESRSSSRGGGGESRSSGAASSAPGGGDGAEYKTLKISELGSQLSDEAVEDGLFHEFKRFGDVSVKISHLSGSGSGDERVAFVNFRRPEDARAAKHARGRLVLYDRPLKIEAVYVSRRRSRSPLDKDTYPPSASVVGASVGGHRHPPGGGGGQRSLSPGGAALGYRDYRLQQLALGRLPPPPPPPLPRDLERERDYPFYERVRPAYSLEPRVGAGAGAAPFREVDEISPEDDQRANRTLFLGNLDITVTESDLRRAFDRFGVITEVDIKRPSRGQTSTYGFLKFENLDMSHRAKLAMSGKIIIRNPIKIGYGKATPTTRLWVGGLGPWVPLAALAREFDRFGTIRTIDYRKGDSWAYIQYESLDAAHAAWTHMRGFPLGGPDRRLRVDFADTEHRYQQQYLQPLPLTHYELVTDAFGHRAPDPLRGARDRTPPLLYRDRDRDLYPDSDWVPPPPPVRERSTRTAATSVPAYEPLDSLDRRRDGWSLDRDRGDRDLPSSRDQPRKRRLPEESGGRHLDRSPESDRPRKRHCAPSPDRSPELSSSRDRYNSDNDRSSRLLLERPSPIRDRRGSLEKSQGDKRDRKNSASAERDRKHRTTAPTEGKSPLKKEDRSDGSAPSTSTASSKLKSPSQKQDGGTAPVASASPKLCLAWQGMLLLKNSNFPSNMHLLQGDLQVASSLLVEGSTGGKVAQLKITQRLRLDQPKLDEVTRRIKVAGPNGYAILLAVPGSSDSRSSSSSAASDTATSTQRPLRNLVSYLKQKQAAGVISLPVGGNKDKENTGVLHAFPPCEFSQQFLDSPAKALAKSEEDYLVMIIVRGFGFQIGVRYENKKRENLALTLL
B1 was tested, and the binding [1] was “binds” and the binding [2] was “binds”.

B2: CMTR1 (enzyme, UniProt Q8N1G2 1-835)
chain: MKRRTDPECTAPIKKQKKRVAELALSLSSTSDDEPPSSVSHGAKASTTSLSGSDSETEGKQHSSDSFDDAFKADSLVEGTSSRYSMYNSVSQKLMAKMGFREGEGLGKYSQGRKDIVEASSQKGRRGLGLTLRGFDQELNVDWRDEPEPSACEQVSWFPECTTEIPDTQEMSDWMVVGKRKMIIEDETEFCGEELLHSVLQCKSVFDVLDGEEMRRARTRANPYEMIRGVFFLNRAAMKMANMDFVFDRMFTNPRDSYGKPLVKDREAELLYFADVCAGPGGFSEYVLWRKKWHAKGFGMTLKGPNDFKLEDFYSASSELFEPYYGEGGIDGDGDITRPENISAFRNFVLDNTDRKGVHFLMADGGFSVEGQENLQEILSKQLLLCQFLMALSIVRTGGHFICKTFDLFTPFSVGLVYLLYCCFERVCLFKPITSRPANSERYVVCKGLKVGIDDVRDYLFAVNIKLNQLRNTDSDVNLVVPLEVIKGDHEFTDYMIRSNESHCSLQIKALAKIHAFVQDTTLSEPRQAEIRKECLRLWGIPDQARVAPSSSDPKSKFFELIQGTEIDIFSYKPTLLTSKTLEKIRPVFDYRCMVSGSEQKFLIGLGKSQIYTWDGRQSDRWIKLDLKTELPRDTLLSVEIVHELKGEGKAQRKISAIHILDVLVLNGTDVREQHFNQRIQLAEKFVKAVSKPSRPDMNPIRVKEVYRLEEMEKIFVRLEMKIIKGSSGTPKLSYTGRDDRHFVPMGLYIVRTVNEPWTMGFSKSFKKKFFYNKKTKDSTFDLPADSIAPFHICYYGRLFWEWGDGIRVHDSQKPQDQDKLSKEDVLSFIQMHRA
In the case of B2, the binding [3] is reported as “binds”.

B3: ICE2 (protein, UniProt Q659A1 1-982)
chain: MSSKMVISEPGLNWDISPKNGLKTFFSRENYKDHSMAPSLKELRVLSNRRIGENLNASASSVENEPAVSSATQAKEKVKTTIGMVLLPKPRVPYPRFSRFSQREQRSYVDLLVKYAKIPANSKAVGINKNDYLQYLDMKKHVNEEVTEFLKFLQNSAKKCAQDYNMLSDDARLFTEKILRACIEQVKKYSEFYTLHEVTSLMGFFPFRVEMGLKLEKTLLALGSVKYVKTVFPSMPIKLQLSKDDIATIETSEQTAEAMHYDISKDPNAEKLVSRYHPQIALTSQSLFTLLNNHGPTYKEQWEIPVCIQVIPVAGSKPVKVIYINSPLPQKKMTMRERNQIFHEVPLKFMMSKNTSVPVSAVFMDKPEEFISEMDMSCEVNECRKIESLENLYLDFDDDVTELETFGVTTTKVSKSPSPASTSTVPNMTDAPTAPKAGTTTVAPSAPDISANSRSLSQILMEQLQKEKQLVTGMDGGPEECKNKDDQGFESCEKVSNSDKPLIQDSDLKTSDALQLENSQEIETSNKNDMTIDILHADGERPNVLENLDNSKEKTVGSEAAKTEDTVLCSSDTDEECLIIDTECKNNSDGKTAVVGSNLSSRPASPNSSSGQASVGNQTNTACSPEESCVLKKPIKRVYKKFDPVGEILKMQDELLKPISRKVPELPLMNLENSKQPSVSEQLSGPSDSSSWPKSGWPSAFQKPKGRLPYELQDYVEDTSEYLAPQEGNFVYKLFSLQDLLLLVRCSVQRIETRPRSKKRKKIRRQFPVYVLPKVEYQACYGVEALTESELCRLWTESLLHSNSSFYVGHIDAFTSKLFLLEEITSEELKEKLSALKISNLFNILQHILKKLSSLQEGSYLLSHAAEDSSLLIYKASDGKVTRTAYNLYKTHCGLPGVPSSLSVPWVPLDPSLLLPYHIHHGRIPCTFPPKSLDTTTQQKIGGTRMPTRSHRNPVSMETKSSCLPAQQVETEGVAPHKRKIT
In the case of B3, the binding [3] is reported as “binds”.

B4: WAC (protein, UniProt Q9BTA9 1-647)
chain: MVMYARKQQRLSDGCHDRRGDSQPYQALKYSSKSHPSSGDHRHEKMRDAGDPSPPNKMLRRSDSPENKYSDSTGHSKAKNVHTHRVRERDGGTSYSPQENSHNHSALHSSNSHSSNPSNNPSKTSDAPYDSADDWSEHISSSGKKYYYNCRTEVSQWEKPKEWLEREQRQKEANKMAVNSFPKDRDYRREVMQATATSGFASGMEDKHSSDASSLLPQNILSQTSRHNDRDYRLPRAETHSSSTPVQHPIKPVVHPTATPSTVPSSPFTLQSDHQPKKSFDANGASTLSKLPTPTSSVPAQKTERKESTSGDKPVSHSCTTPSTSSASGLNPTSAPPTSASAVPVSPVPQSPIPPLLQDPNLLRQLLPALQATLQLNNSNVDISKINEVLTAAVTQASLQSIIHKFLTAGPSAFNITSLISQAAQLSTQAQPSNQSPMSLTSDASSPRSYVSPRISTPQTNTVPIKPLISTPPVSSQPKVSTPVVKQGPVSQSATQQPVTADKQQGHEPVSPRSLQRSSSQRSPSPGPNHTSNSSNASNATVVPQNSSARSTCSLTPALAAHFSENLIKHVQGWPADHAEKQASRLREEAHNMGTIHMSEICTELKNLRSLVRVCEIQATLREQRILFLRQQIKELEKLKNQNSFMV
B4 was tested, and the binding [3] was “binds”.

B5: SCAF8 (protein, UniProt Q9UPN6 1-1271)
chain: MEAVKTFNSELYSLNDYKPPISKAKMTQITKAAIKAIKFYKHVVQSVEKFIQKCKPEYKVPGLYVIDSIVRQSRHQFGQEKDVFAPRFSNNIISTFQNLYRCPGDDKSKIVRVLNLWQKNNVFKSEIIQPLLDMAAGIPPPVVTPVLASTTTAMSNTPGTPVTPVTPANVVQGLPDPWVSQITNTDTLAAVAQILQSPQGQQLQQLIQTLQIQQQKPQPSILQALDAGLVVQLQALTAQLTAAAAAANTLTPLEQGVSFNKKLMDRFDFGEDSEHSEEPKKEIPASQLSHVSESVNNSIFHQIAEQLQQQNLEHLRQQLLEQQQPQKATPQDSQEGTFGSEHSASPSQGSSQQHFLEPEVNLDDSIDIQQQDMDIDEGQDGVEEEVFEQEAKKVAVRSRSRTHSRSRSRSPRKRRSRSRSGSRKRKHRKRSRSRSRERKRKSSRSYSSERRAREREKERQKKGLPPIRSKTLSVCSTTLWVGQVDKKATQQDLTNLFEEFGQIESINMIPPRGCAYVCMVHRQDAFRALQKLSSGSYKIGSKVIKIAWALNKGVKTEYKQFWDVDLGVTYIPWEKVKVDDLEGFAEGGMIDQETVNTEWETVKSSEPVKETVQTTQSPTPVEKETVVTTQAEVFPPPVAMLQIPVAPAVPTVSLVPPAFPVSMPVPPPGFSPIPPPPFLRASFNPSQPPPGFMPPPVPPPVVPPPTIPPVVPTSLVQPSLSMTPETVKDVGFGSLVIPGGSVASNLATSALPAGNVFNAPTKQAEPEEKVPHLIDHQISSGENTRSVIPNDISSNAAILGGQPPNVTSNSGILGVQRPNVSSNSEILGVRPSNVSSSSGIIAAQPPNILNNSGILGIQPPSVSNSSGLLGVLPPNIPNNSGLVGVQPPNVPNTPGLLGTQPPAGPQNLPPLSIPNQRMPTMPMLDIRPGLIPQAPGPRFPLIQPGIPPQRGIPPPSVLDSALHPPPRGPFPPGDIFSQPERPFLAPGRQSVDNVTNPEKRIPLGNDNIQQEGDRDYRFPPIETRESISRPPPVDVRDVVGRPIDPREGPGRPPLDGRDHFGRPPVDIRENLVRPGIDHLGRRDHFGFNPEKPWGHRGDFDEREHRVLPVYGGPKGLHEERGRFRSGNYRFDPRSGPWNRGFGQEVHRDFDDRRRPWERQRDRDDRDFDFCREMNGNRLGRDRIQNTWVPPPHARVFDYFEGATSQRKGDNVPQVNGENTERHAQPPPIPVQNDPELYEKLTSSNEINKEKSDTVADIESEPVVESTETEGT
In the case of B5, the binding [3] is reported as “binds”.

B6: HAKAI (protein, UniProt Q75N03 1-491)
chain: MDHTDNELQGTNSSGSLGGLDVRRRIPIKLISKQANKAKPAPRTQRTINRMPAKAPPGDEEGFDYNEEERYDCKGGELFANQRRFPGHLFWDFQINILGEKDDTPVHFCDKCGLPIKIYGRMIPCKHVFCYDCAILHEKKGDKMCPGCSDPVQRIEQCTRGSLFMCSIVQGCKRTYLSQRDLQAHINHRHMRAGKPVTRASLENVHPPIAPPPTEIPERFIMPPDKHHMSHIPPKQHIMMPPPPLQHVPHEHYNQPHEDIRAPPAELSMAPPPPRSVSQETFRISTRKHSNLITVPIQDDSNSGAREPPPPAPAPAHHHPEYQGQPVVSHPHHIMPPQQHYAPPPPPPPPISHPMPHPPQAAGTPHLVYSQAPPPPMTSAPPPITPPPGHIIAQMPPYMNHPPPGPPPPQHGGPPVTAPPPHHYNPNSLPQFTEDQGTLSPPFTQPGGMSPGIWPAPRGPPPPPRLQGPPSQTPLPGPHHPDQTRYRPYYQ
B6 was tested, and the binding [1] was “binds” and the binding [2] was “binds”.

Reference: article PMC8565353
